Experimental data: PubChem BioAssay AID1508597 (Cure First, 2020)

Aim: 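Genes whose silencing sensitises or protects ovarian cancer cells against rucaparib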 (primary screen)
System: human ovarian carcinoma lines grown from tumours: OCI-P5x (papillary serous) and OCI-C5x (clear cell)
Reagent: siRNA pool against human genes, 1.25 pmol siRNA per well
Time to read-out: 72 h or 96 h, depending on the cell culture
Conditions: rucaparib 20 µM (about IC30) or vehicle, present until read-out
Rucaparib or vehicle: Rucaparib
Cell line: OCI-P5x (serous)
Read-out: 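ATP luminescence measured at 72 or 96 h according to the culture, then normalised and expressed as percent viability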
Direction: viability, normalised: higher = more viable cells remaining
Hit rule: 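a well counts as a hit if its normalised viability is under 80 percent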
Meaning of the calls: active = viability under 80%; inactive = viability 80% or more
Shown is a random part of the about 2,100 reagents, under one of the conditions tested. 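Calls flag viability under 80% in either arm, not effects specific to rucaparib; the reference for percent is not stated.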 Entries without a mark were called inactive. Some reagents were tested in more than one well and are listed for each. Reagent sequences are not shown. The record does not give: the 100% reference.

With SMARCD1 (GeneID 6602), technical replicate 1, the entry reads viability, normalised (%) = 66.6 (active). SMARCD1 (GeneID 6602), technical replicate 2 showed viability, normalised (%) = 63.1 (active). With SMARCD1 (GeneID 6602), technical replicate 3, the values are viability, normalised (%) = 59.8 (active). For PIK3R1 (GeneID 5295), technical replicate 1 the deposit lists viability, normalised (%) = 56.5 (active). For PIK3R1 (GeneID 5295), technical replicate 2, the values are viability, normalised (%) = 62.6 (active). PIK3R1 (GeneID 5295), technical replicate 3 showed viability, normalised (%) = 54.2 (active).

AURKA (GeneID 6790), technical replicate 1 scored viability, normalised (%) = 46.8 (active). AURKA (GeneID 6790), technical replicate 1 showed viability, normalised (%) = 99.6. With AURKA (GeneID 6790), technical replicate 2, the values are viability, normalised (%) = 59.7 (active). With AURKA (GeneID 6790), technical replicate 2 the deposit lists viability, normalised (%) = 84.2. For AURKA (GeneID 6790), technical replicate 3, the entry reads viability, normalised (%) = 59.6 (active). AURKA (GeneID 6790), technical replicate 3 showed viability, normalised (%) = 81.

AMHR2 (GeneID 269), technical replicate 1 scored viability, normalised (%) = 95.9. AMHR2 (GeneID 269), technical replicate 2 showed viability, normalised (%) = 101. AMHR2 (GeneID 269), technical replicate 3 scored viability, normalised (%) = 96.7. For RAD52 (GeneID 5893), technical replicate 1 the deposit lists viability, normalised (%) = 65.2 (active). For RAD52 (GeneID 5893), technical replicate 2, the values are viability, normalised (%) = 71.2 (active). RAD52 (GeneID 5893), technical replicate 3 gave viability, normalised (%) = 74.1 (active).

POLE2 (GeneID 5427), technical replicate 1 gave viability, normalised (%) = 58.1 (active). For POLE2 (GeneID 5427), technical replicate 2, the entry reads viability, normalised (%) = 62.3 (active). POLE2 (GeneID 5427), technical replicate 3 gave viability, normalised (%) = 47 (active). PDXK (GeneID 8566), technical replicate 1 showed viability, normalised (%) = 110. For PDXK (GeneID 8566), technical replicate 2 the deposit lists viability, normalised (%) = 102. PDXK (GeneID 8566), technical replicate 3 gave viability, normalised (%) = 101.

NAP1L2 (GeneID 4674), technical replicate 1 scored viability, normalised (%) = 45.8 (active). For NAP1L2 (GeneID 4674), technical replicate 2 the deposit lists viability, normalised (%) = 49.4 (active). For NAP1L2 (GeneID 4674), technical replicate 3, the entry reads viability, normalised (%) = 44.7 (active). With DGKZ (GeneID 8525), technical replicate 1 the deposit lists viability, normalised (%) = 114. DGKZ (GeneID 8525), technical replicate 2 gave viability, normalised (%) = 129. With DGKZ (GeneID 8525), technical replicate 3, the values are viability, normalised (%) = 91.6.

For IKBKE (GeneID 9641), technical replicate 1, the values are viability, normalised (%) = 64 (active). IKBKE (GeneID 9641), technical replicate 2 scored viability, normalised (%) = 74.6 (active). IKBKE (GeneID 9641), technical replicate 3 scored viability, normalised (%) = 49.8 (active). DDX1 (GeneID 1653), technical replicate 1 scored viability, normalised (%) = 60.1 (active). DDX1 (GeneID 1653), technical replicate 1 showed viability, normalised (%) = 70.7 (active). For DDX1 (GeneID 1653), technical replicate 2, the entry reads viability, normalised (%) = 62.1 (active).

For DDX1 (GeneID 1653), technical replicate 2 the deposit lists viability, normalised (%) = 62.2 (active). With DDX1 (GeneID 1653), technical replicate 3 the deposit lists viability, normalised (%) = 69.4 (active). DDX1 (GeneID 1653), technical replicate 3 scored viability, normalised (%) = 56.1 (active). For MAP4K2 (GeneID 5871), technical replicate 1, the values are viability, normalised (%) = 114. For MAP4K2 (GeneID 5871), technical replicate 2, the values are viability, normalised (%) = 107. MAP4K2 (GeneID 5871), technical replicate 3 gave viability, normalised (%) = 109.

Entries above whose target name begins with M or m (3):
MAP4K2 (GeneID 5871), technical replicate 1 | viability, normalised (%): 114
MAP4K2 (GeneID 5871), technical replicate 2 | viability, normalised (%): 107
MAP4K2 (GeneID 5871), technical replicate 3 | viability, normalised (%): 109
